Laboratory results from patent publication US20060242739A1, “Plant nucleotide-sugar pyrophosphatase/phosphodiesterase (nppase), method of obtaining same and use of same in the production of assay devices and in the production of transgenic plants” (Universidad Publica De Navarra, priority 2002, published 2006).

B1: NPPase: plant nucleotide pyrophosphatase/phosphodiesterase, soluble 70-kDa isoform purified from barley leaves (protein)
chain: MVSRKRGGGGGVAMAVAMLLAAASASRPSSSLEGFQPLSKIAVHKATVDLHGSAFVSATPALLGDQGEDTEWVTVKYGWANPSADDWIAVFSPADFISGSCPNPSRYPDEPLLCTAPIKYQFANYSANYVYWGKGSIRFQLINQRYDFSFALFTGGLENPKLVAVSEAISFKNPKAPVYPRLAQGKSYDEMTVTWTSGYDISEAYPFVEWGMVVAGAAAPTRTAAGTLTFNRGSMCGDPDRTVGWRDPGFIHTAFLRDLWPNKEYYYKIGHELSDGSIVWGKQYTFRAPPFPGQNSLQRIIVFGDMGKAERDGSNEFANYQPGSLNTTDRLVEDLDNYDIVFHIGDLPYANGYISQWDQFTAQVAPITAKKPYMIASGNHERDWPNTGGFFDVKDSGGECGVPAETMYYYPAENRANFWYKVDYGMFRFCIADSEHDWREGTDQYKFIEQCLSTVDRKHQPWLIFAAHRVLGYSSNWWYADQQSFEEPEGRESLQRLWQRHRVDVAFFGHVHNYERTCPMYQSQCVSGERRRYSGTMNGTIFVVAGGGGSHLSDYTSAIPKWSVFRDRDFGFVKLTAFNHSSLLFEYKKSSDGKVYDSFTVERDYRDVLSCVHDSCLPTTLAS
Keq′ of the reaction: 110
